{
  "sequences": {"note": "Chains of the proteins cited; added tags and fusions are not shown.", "COX6C, P09669, UniProt P09669, whole entry": "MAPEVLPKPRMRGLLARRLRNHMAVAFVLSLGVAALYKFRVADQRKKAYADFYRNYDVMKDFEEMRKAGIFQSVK", "HUWE1, Q7Z6Z7, UniProt Q7Z6Z7, whole entry": "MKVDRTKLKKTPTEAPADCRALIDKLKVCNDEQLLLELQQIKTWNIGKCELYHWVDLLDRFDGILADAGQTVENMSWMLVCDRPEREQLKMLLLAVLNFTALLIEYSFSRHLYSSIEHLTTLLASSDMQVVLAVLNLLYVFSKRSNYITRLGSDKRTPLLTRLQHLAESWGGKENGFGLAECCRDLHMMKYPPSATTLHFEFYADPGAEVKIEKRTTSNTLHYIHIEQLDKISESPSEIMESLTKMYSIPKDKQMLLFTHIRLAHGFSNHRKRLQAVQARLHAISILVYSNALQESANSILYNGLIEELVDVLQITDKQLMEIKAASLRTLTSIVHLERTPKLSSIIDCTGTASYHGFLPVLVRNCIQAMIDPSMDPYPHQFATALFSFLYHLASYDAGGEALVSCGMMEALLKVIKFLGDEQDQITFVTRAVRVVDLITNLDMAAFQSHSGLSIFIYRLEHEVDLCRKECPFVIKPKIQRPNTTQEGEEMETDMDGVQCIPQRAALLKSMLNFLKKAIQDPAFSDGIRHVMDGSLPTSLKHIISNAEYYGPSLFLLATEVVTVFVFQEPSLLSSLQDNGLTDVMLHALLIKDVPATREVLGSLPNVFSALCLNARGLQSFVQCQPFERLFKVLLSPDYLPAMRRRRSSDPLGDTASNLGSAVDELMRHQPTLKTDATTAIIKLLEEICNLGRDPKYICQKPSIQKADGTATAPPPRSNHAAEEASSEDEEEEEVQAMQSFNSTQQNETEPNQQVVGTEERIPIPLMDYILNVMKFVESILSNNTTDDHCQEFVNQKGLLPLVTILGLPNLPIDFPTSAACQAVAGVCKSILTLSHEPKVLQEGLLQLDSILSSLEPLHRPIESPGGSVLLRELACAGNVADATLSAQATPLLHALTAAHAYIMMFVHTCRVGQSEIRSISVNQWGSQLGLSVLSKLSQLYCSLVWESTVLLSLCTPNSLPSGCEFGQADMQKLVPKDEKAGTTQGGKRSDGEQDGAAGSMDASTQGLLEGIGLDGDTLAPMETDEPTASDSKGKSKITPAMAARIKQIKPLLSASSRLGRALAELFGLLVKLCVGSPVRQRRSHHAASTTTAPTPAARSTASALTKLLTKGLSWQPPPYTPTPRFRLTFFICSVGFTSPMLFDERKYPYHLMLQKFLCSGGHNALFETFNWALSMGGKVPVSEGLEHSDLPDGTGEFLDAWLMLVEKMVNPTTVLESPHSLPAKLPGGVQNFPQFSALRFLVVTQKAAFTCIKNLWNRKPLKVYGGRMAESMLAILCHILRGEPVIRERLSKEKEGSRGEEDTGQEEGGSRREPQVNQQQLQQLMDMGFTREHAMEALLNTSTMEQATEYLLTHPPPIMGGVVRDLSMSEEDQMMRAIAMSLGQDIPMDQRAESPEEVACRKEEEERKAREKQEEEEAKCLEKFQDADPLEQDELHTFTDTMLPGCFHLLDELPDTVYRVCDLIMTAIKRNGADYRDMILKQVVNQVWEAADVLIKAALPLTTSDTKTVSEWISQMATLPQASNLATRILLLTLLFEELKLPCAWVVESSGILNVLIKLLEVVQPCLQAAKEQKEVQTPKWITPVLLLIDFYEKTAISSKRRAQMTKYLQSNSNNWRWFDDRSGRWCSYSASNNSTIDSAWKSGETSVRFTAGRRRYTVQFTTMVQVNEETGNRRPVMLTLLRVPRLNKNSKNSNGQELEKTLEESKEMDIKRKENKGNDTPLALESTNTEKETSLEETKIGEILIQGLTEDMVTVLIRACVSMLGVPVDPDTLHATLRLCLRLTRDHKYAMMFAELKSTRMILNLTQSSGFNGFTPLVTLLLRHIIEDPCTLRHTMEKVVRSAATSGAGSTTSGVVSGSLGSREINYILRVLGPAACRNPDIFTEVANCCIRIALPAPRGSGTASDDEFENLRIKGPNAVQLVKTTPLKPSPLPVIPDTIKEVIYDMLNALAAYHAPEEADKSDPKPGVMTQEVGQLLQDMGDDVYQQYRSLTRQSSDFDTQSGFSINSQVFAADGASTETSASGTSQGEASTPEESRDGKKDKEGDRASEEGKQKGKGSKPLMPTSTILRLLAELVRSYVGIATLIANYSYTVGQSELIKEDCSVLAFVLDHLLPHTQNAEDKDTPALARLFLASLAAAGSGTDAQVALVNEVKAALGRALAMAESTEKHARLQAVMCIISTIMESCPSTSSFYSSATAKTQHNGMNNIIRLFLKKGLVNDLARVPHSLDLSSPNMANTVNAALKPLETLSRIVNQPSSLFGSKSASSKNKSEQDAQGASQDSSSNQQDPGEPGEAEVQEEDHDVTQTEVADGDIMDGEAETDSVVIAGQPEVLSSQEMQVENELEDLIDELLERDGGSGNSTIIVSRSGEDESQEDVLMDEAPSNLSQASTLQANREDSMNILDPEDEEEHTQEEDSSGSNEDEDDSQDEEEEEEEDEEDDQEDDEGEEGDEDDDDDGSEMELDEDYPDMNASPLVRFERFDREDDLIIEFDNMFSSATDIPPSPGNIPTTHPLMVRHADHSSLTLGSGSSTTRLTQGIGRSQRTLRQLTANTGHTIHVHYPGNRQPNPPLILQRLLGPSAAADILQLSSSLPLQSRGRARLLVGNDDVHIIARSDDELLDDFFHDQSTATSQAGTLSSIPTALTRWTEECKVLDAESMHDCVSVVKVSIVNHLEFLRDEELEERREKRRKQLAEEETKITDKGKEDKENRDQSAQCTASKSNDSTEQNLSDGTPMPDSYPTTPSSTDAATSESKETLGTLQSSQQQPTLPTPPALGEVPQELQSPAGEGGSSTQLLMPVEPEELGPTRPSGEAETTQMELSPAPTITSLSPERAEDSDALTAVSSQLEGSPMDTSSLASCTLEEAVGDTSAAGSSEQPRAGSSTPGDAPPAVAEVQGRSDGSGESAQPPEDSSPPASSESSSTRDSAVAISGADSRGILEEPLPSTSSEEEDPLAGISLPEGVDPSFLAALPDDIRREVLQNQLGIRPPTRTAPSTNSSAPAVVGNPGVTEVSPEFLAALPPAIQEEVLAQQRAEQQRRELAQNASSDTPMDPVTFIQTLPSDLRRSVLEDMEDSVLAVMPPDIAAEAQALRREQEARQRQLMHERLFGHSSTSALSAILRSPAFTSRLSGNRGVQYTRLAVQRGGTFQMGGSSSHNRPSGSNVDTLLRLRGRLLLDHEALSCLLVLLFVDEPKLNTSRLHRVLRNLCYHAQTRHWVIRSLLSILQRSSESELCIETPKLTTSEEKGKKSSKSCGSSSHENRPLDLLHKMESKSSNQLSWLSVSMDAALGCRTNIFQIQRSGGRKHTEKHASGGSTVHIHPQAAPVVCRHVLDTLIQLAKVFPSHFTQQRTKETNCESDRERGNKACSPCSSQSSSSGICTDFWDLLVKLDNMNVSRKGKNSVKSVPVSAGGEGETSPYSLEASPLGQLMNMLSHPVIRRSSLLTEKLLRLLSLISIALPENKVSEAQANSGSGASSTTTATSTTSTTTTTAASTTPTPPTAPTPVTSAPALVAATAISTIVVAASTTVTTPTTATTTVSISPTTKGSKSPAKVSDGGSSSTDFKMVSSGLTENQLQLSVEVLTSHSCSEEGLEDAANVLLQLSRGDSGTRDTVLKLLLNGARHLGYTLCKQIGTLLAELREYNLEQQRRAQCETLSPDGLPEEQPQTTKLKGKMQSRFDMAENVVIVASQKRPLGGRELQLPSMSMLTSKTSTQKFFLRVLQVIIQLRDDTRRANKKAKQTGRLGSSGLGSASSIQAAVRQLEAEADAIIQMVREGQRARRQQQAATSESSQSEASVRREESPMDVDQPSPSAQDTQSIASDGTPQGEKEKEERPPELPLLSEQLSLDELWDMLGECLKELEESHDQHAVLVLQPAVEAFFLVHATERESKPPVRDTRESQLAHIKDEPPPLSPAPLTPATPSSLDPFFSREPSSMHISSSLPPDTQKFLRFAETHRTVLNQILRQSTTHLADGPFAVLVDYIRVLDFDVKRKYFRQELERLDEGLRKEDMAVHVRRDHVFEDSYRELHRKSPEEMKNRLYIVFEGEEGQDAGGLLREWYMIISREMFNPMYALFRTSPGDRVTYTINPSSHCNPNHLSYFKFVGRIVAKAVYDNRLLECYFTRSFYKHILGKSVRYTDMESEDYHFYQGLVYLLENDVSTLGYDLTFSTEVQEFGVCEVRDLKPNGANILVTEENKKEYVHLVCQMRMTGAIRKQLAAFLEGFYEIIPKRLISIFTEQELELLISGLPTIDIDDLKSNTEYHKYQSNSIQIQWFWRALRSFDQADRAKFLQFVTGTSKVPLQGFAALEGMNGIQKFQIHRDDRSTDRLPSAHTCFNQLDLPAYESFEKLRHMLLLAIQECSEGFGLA", "RFC4, P35249, UniProt P35249, whole entry": "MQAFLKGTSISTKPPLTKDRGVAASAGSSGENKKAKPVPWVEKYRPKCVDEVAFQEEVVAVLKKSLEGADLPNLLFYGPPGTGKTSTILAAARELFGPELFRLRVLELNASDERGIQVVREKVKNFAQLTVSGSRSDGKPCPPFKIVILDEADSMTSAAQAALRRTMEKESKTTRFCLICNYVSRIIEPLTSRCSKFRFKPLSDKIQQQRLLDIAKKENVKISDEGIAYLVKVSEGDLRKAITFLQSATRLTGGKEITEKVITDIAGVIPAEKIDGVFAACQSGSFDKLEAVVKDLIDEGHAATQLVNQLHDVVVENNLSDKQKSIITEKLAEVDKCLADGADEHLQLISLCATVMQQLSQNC", "FAM168B, A1KXE4, UniProt A1KXE4, whole entry": "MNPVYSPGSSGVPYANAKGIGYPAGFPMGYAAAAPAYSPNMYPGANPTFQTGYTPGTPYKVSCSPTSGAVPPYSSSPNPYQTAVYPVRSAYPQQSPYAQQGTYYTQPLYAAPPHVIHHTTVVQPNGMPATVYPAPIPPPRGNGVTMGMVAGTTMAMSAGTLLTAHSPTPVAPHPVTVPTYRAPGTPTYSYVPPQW", "TAF4, O00268, UniProt O00268, whole entry": "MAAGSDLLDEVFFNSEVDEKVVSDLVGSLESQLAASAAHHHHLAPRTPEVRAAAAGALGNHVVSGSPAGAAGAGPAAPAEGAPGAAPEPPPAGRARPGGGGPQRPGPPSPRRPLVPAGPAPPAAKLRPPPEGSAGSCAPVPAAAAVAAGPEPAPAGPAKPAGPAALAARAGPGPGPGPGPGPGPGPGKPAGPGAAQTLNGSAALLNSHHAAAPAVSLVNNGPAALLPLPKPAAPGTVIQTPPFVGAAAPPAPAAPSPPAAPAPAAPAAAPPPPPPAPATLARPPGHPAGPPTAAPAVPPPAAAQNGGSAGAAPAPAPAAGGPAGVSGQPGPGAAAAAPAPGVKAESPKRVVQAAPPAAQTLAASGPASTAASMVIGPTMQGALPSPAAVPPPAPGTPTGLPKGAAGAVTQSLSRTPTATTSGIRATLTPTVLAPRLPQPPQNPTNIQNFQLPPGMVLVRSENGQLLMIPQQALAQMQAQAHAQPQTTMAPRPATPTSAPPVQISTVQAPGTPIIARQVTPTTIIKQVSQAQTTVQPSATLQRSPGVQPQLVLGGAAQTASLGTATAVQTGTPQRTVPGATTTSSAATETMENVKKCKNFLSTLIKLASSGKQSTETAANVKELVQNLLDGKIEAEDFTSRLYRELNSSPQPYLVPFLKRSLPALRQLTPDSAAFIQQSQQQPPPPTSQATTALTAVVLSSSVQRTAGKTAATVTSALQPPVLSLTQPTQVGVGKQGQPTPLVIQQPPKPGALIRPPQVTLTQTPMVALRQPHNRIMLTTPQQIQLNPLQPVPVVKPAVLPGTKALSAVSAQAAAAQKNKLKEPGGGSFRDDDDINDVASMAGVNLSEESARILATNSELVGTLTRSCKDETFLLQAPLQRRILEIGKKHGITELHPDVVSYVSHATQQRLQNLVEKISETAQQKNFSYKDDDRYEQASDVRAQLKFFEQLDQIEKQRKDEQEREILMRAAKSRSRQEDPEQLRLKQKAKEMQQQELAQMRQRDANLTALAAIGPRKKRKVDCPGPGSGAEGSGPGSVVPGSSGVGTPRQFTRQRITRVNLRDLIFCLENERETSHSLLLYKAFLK"},
  "source": "the supplement of paper PMC10032668",
  "assay_in_all_cases": "PRISMA enrichment of interactor (LFQ) in peptide spot vs all other peptide spots (log2 fold change); higher = stronger / more specific binding of the interactor to the peptide",
  "key": {"CHEK1, O14757": {"biological_target": "CHEK1, O14757", "description": "(§1)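 PRISMA: 15-aa overlapping tiles (offset 8 aa) of 60 microproteins, plus SOS1/GLUT1 control peptides, were spot-synthesized on cellulose membranes in triplicate. Membranes were incubated with benzonase-treated HEK293T lysate, and bound proteins were identified by LC-MS/MS with LFQ. Enrichment is the log2 fold change of each protein in one spot versus all other spots. Only interactors passing the significance cutoff are listed.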"}, "COL4A3BP, Q9Y5P4": {"biological_target": "COL4A3BP, Q9Y5P4", "description": "as §1"}, "COX6C, P09669": {"biological_target": "COX6C, P09669", "description": "as §1"}, "EIF2AK2, P19525": {"biological_target": "EIF2AK2, P19525", "description": "as §1"}, "HUWE1, Q7Z6Z7": {"biological_target": "HUWE1, Q7Z6Z7", "description": "as §1"}, "L2HGDH, Q9H9P8": {"biological_target": "L2HGDH, Q9H9P8", "description": "as §1"}, "NUP133, Q8WUM0": {"biological_target": "NUP133, Q8WUM0", "description": "as §1"}, "PRIM1, P49642": {"biological_target": "PRIM1, P49642", "description": "as §1"}, "RFC4, P35249": {"biological_target": "RFC4, P35249", "description": "as §1"}, "SMPD4, Q9NXE4": {"biological_target": "SMPD4, Q9NXE4", "description": "as §1"}, "CNIH4, Q9P003": {"biological_target": "CNIH4, Q9P003", "description": "as §1"}, "FAM168B, A1KXE4": {"biological_target": "FAM168B, A1KXE4", "description": "as §1"}, "GPN2, Q9H9Y4": {"biological_target": "GPN2, Q9H9Y4", "description": "as §1"}, "MRPL27, Q9P0M9": {"biological_target": "MRPL27, Q9P0M9", "description": "as §1"}, "NFS1, Q9Y697": {"biological_target": "NFS1, Q9Y697", "description": "as §1"}, "NOL11, Q9H8H0": {"biological_target": "NOL11, Q9H8H0", "description": "as §1"}, "TMEM41B, Q5BJD5": {"biological_target": "TMEM41B, Q5BJD5", "description": "as §1"}, "CHERP, Q8IWX8": {"biological_target": "CHERP, Q8IWX8", "description": "as §1"}, "COQ5, Q5HYK3": {"biological_target": "COQ5, Q5HYK3", "description": "as §1"}, "CXorf56, Q9H5V9": {"biological_target": "CXorf56, Q9H5V9", "description": "as §1"}, "DDX21, Q9NR30": {"biological_target": "DDX21, Q9NR30", "description": "as §1"}, "FANCD2, Q9BXW9": {"biological_target": "FANCD2, Q9BXW9", "description": "as §1"}, "FUBP1, Q96AE4": {"biological_target": "FUBP1, Q96AE4", "description": "as §1"}, "GLE1, Q53GS7": {"biological_target": "GLE1, Q53GS7", "description": "as §1"}, "LARP1, Q6PKG0": {"biological_target": "LARP1, Q6PKG0", "description": "as §1"}, "MGA, Q8IWI9": {"biological_target": "MGA, Q8IWI9", "description": "as §1"}, "MPP1, Q00013": {"biological_target": "MPP1, Q00013", "description": "as §1"}, "MRPL20, Q9BYC9": {"biological_target": "MRPL20, Q9BYC9", "description": "as §1"}, "NOL6, Q9H6R4": {"biological_target": "NOL6, Q9H6R4", "description": "as §1"}, "NOP58, Q9Y2X3": {"biological_target": "NOP58, Q9Y2X3", "description": "as §1"}, "PDIA4, P13667": {"biological_target": "PDIA4, P13667", "description": "as §1"}, "PINX1, Q96BK5": {"biological_target": "PINX1, Q96BK5", "description": "as §1"}, "SART1, O43290": {"biological_target": "SART1, O43290", "description": "as §1"}, "SF3B5, Q9BWJ5": {"biological_target": "SF3B5, Q9BWJ5", "description": "as §1"}, "SP2, Q02086": {"biological_target": "SP2, Q02086", "description": "as §1"}, "TAF4, O00268": {"biological_target": "TAF4, O00268", "description": "as §1"}, "TARBP1, Q13395": {"biological_target": "TARBP1, Q13395", "description": "as §1"}, "UTP11, Q9Y3A2": {"biological_target": "UTP11, Q9Y3A2", "description": "as §1"}, "XRCC5, P13010": {"biological_target": "XRCC5, P13010", "description": "as §1"}, "YLPM1, P49750": {"biological_target": "YLPM1, P49750", "description": "as §1"}, "YWHAG, P61981": {"biological_target": "YWHAG, P61981", "description": "as §1"}},
  "note": "The list shows a part of the results. Only hits are listed; about a third recur on repeated control peptides.",
  "data": [
    {"binder": "MLTLRALQLSLPTKI", "note": "[ZEB2]", "values": [
      {"measurement": "PRISMA enrichment of interactor (log2)", "setting": "CHEK1, O14757", "value": 5.56},
      {"measurement": "PRISMA enrichment of interactor (log2)", "setting": "COL4A3BP, Q9Y5P4", "value": 4.28},
      {"measurement": "PRISMA enrichment of interactor (log2)", "setting": "COX6C, P09669", "value": 6.09},
      {"measurement": "PRISMA enrichment of interactor (log2)", "setting": "EIF2AK2, P19525", "value": 5.29},
      {"measurement": "PRISMA enrichment of interactor (log2)", "setting": "HUWE1, Q7Z6Z7", "value": 4.92},
      {"measurement": "PRISMA enrichment of interactor (log2)", "setting": "L2HGDH, Q9H9P8", "value": 4.15},
      {"measurement": "PRISMA enrichment of interactor (log2)", "setting": "NUP133, Q8WUM0", "value": 8.39},
      {"measurement": "PRISMA enrichment of interactor (log2)", "setting": "PRIM1, P49642", "value": 4.53},
      {"measurement": "PRISMA enrichment of interactor (log2)", "setting": "RFC4, P35249", "value": 7.98},
      {"measurement": "PRISMA enrichment of interactor (log2)", "setting": "SMPD4, Q9NXE4", "value": 5.87}
    ]},
    {"binder": "FSFSRPSHALFLFPF", "note": "[LINC00881]", "values": [
      {"measurement": "PRISMA enrichment of interactor (log2)", "setting": "CNIH4, Q9P003", "value": 4.41},
      {"measurement": "PRISMA enrichment of interactor (log2)", "setting": "FAM168B, A1KXE4", "value": 4.96},
      {"measurement": "PRISMA enrichment of interactor (log2)", "setting": "GPN2, Q9H9Y4", "value": 7.93},
      {"measurement": "PRISMA enrichment of interactor (log2)", "setting": "MRPL27, Q9P0M9", "value": 6.6},
      {"measurement": "PRISMA enrichment of interactor (log2)", "setting": "NFS1, Q9Y697", "value": 4.23},
      {"measurement": "PRISMA enrichment of interactor (log2)", "setting": "NOL11, Q9H8H0", "value": 3.8},
      {"measurement": "PRISMA enrichment of interactor (log2)", "setting": "TMEM41B, Q5BJD5", "value": 4.62}
    ]},
    {"binder": "GPSRPVLGIDYSKKE", "note": "[LINC01560]", "values": [
      {"measurement": "PRISMA enrichment of interactor (log2)", "setting": "CHERP, Q8IWX8", "value": 4.55},
      {"measurement": "PRISMA enrichment of interactor (log2)", "setting": "COQ5, Q5HYK3", "value": 3.92},
      {"measurement": "PRISMA enrichment of interactor (log2)", "setting": "CXorf56, Q9H5V9", "value": 4.73},
      {"measurement": "PRISMA enrichment of interactor (log2)", "setting": "DDX21, Q9NR30", "value": 4.4},
      {"measurement": "PRISMA enrichment of interactor (log2)", "setting": "FANCD2, Q9BXW9", "value": 4.27},
      {"measurement": "PRISMA enrichment of interactor (log2)", "setting": "FUBP1, Q96AE4", "value": 5.09},
      {"measurement": "PRISMA enrichment of interactor (log2)", "setting": "GLE1, Q53GS7", "value": 5.37},
      {"measurement": "PRISMA enrichment of interactor (log2)", "setting": "LARP1, Q6PKG0", "value": 6.54},
      {"measurement": "PRISMA enrichment of interactor (log2)", "setting": "MGA, Q8IWI9", "value": 7.43},
      {"measurement": "PRISMA enrichment of interactor (log2)", "setting": "MPP1, Q00013", "value": 6.26},
      {"measurement": "PRISMA enrichment of interactor (log2)", "setting": "MRPL20, Q9BYC9", "value": 4.79},
      {"measurement": "PRISMA enrichment of interactor (log2)", "setting": "NOL6, Q9H6R4", "value": 5.32},
      {"measurement": "PRISMA enrichment of interactor (log2)", "setting": "NOP58, Q9Y2X3", "value": 4.87},
      {"measurement": "PRISMA enrichment of interactor (log2)", "setting": "PDIA4, P13667", "value": 4.98},
      {"measurement": "PRISMA enrichment of interactor (log2)", "setting": "PINX1, Q96BK5", "value": 6.43},
      {"measurement": "PRISMA enrichment of interactor (log2)", "setting": "SART1, O43290", "value": 4.51},
      {"measurement": "PRISMA enrichment of interactor (log2)", "setting": "SF3B5, Q9BWJ5", "value": 4.84},
      {"measurement": "PRISMA enrichment of interactor (log2)", "setting": "SP2, Q02086", "value": 5.59},
      {"measurement": "PRISMA enrichment of interactor (log2)", "setting": "TAF4, O00268", "value": 5.71},
      {"measurement": "PRISMA enrichment of interactor (log2)", "setting": "TARBP1, Q13395", "value": 6.06},
      {"measurement": "PRISMA enrichment of interactor (log2)", "setting": "UTP11, Q9Y3A2", "value": 5.78},
      {"measurement": "PRISMA enrichment of interactor (log2)", "setting": "XRCC5, P13010", "value": 4.54},
      {"measurement": "PRISMA enrichment of interactor (log2)", "setting": "YLPM1, P49750", "value": 4.91},
      {"measurement": "PRISMA enrichment of interactor (log2)", "setting": "YWHAG, P61981", "value": 6.04}
    ]}
  ]
}
